Test results from paper PMC6160390.
No constants are given. Whether binding was seen depends on the method and setting. In cells and extracts the contact can be indirect. Some results given as binding are weak or reduced against the parent protein; the word gives no strength.

Sequences of proteins named here, by UniProt entry; tags and fusion partners are left off. Residues count along the entry.
UniProt P01589, residues 22-272: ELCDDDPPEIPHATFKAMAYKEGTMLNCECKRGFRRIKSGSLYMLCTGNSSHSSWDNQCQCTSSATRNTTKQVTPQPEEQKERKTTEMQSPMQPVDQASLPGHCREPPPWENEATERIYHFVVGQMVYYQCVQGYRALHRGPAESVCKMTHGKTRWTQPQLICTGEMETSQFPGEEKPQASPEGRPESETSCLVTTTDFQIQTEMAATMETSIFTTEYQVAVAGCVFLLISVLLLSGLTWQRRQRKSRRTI
UniProt O95782: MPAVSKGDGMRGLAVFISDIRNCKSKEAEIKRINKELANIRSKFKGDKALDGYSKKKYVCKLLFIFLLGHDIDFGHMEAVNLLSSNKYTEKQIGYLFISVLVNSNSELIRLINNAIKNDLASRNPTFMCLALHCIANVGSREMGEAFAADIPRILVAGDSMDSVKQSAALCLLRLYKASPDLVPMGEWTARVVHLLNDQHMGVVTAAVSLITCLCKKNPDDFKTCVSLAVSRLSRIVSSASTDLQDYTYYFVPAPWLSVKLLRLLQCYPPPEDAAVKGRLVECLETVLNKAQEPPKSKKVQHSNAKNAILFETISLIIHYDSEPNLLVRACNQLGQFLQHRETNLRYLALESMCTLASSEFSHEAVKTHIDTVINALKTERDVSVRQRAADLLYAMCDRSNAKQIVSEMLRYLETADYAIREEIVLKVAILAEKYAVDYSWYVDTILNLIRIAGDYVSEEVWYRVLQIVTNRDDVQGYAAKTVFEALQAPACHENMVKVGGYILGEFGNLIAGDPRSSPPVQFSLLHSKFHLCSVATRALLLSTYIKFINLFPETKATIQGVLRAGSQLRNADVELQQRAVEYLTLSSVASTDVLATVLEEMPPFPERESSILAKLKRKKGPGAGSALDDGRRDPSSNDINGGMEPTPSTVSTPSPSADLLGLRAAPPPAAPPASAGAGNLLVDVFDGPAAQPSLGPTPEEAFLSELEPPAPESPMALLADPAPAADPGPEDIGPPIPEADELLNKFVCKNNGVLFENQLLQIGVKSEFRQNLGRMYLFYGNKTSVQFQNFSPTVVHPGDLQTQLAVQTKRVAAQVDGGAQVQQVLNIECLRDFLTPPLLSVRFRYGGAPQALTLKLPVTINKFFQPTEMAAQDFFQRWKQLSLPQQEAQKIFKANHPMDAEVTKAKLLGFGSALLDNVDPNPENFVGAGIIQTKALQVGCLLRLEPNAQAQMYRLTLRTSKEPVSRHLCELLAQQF
UniProt P63010: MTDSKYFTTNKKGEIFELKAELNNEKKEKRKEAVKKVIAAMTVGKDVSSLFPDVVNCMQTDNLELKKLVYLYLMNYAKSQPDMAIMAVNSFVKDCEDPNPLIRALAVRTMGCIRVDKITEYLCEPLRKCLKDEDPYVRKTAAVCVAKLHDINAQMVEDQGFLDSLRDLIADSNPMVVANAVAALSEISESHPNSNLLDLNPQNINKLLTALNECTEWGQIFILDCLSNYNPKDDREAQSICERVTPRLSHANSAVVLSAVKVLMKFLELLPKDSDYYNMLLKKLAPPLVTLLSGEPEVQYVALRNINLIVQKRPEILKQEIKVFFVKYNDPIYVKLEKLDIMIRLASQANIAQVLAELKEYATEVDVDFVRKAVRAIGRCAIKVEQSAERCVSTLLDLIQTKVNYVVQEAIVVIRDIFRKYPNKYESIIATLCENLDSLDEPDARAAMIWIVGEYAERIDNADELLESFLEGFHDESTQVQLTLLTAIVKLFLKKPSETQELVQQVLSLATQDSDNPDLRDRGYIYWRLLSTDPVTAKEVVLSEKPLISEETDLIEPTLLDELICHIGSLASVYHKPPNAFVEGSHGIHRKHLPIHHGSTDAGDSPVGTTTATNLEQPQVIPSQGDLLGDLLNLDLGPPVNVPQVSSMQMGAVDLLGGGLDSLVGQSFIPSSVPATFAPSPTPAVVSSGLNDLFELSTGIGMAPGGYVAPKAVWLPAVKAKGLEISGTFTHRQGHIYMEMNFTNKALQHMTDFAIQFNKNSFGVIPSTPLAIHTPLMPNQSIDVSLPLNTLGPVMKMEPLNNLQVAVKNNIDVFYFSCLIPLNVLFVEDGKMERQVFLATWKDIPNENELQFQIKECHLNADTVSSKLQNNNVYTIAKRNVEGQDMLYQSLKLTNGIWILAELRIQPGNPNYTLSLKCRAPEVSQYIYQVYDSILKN
UniProt Q00610: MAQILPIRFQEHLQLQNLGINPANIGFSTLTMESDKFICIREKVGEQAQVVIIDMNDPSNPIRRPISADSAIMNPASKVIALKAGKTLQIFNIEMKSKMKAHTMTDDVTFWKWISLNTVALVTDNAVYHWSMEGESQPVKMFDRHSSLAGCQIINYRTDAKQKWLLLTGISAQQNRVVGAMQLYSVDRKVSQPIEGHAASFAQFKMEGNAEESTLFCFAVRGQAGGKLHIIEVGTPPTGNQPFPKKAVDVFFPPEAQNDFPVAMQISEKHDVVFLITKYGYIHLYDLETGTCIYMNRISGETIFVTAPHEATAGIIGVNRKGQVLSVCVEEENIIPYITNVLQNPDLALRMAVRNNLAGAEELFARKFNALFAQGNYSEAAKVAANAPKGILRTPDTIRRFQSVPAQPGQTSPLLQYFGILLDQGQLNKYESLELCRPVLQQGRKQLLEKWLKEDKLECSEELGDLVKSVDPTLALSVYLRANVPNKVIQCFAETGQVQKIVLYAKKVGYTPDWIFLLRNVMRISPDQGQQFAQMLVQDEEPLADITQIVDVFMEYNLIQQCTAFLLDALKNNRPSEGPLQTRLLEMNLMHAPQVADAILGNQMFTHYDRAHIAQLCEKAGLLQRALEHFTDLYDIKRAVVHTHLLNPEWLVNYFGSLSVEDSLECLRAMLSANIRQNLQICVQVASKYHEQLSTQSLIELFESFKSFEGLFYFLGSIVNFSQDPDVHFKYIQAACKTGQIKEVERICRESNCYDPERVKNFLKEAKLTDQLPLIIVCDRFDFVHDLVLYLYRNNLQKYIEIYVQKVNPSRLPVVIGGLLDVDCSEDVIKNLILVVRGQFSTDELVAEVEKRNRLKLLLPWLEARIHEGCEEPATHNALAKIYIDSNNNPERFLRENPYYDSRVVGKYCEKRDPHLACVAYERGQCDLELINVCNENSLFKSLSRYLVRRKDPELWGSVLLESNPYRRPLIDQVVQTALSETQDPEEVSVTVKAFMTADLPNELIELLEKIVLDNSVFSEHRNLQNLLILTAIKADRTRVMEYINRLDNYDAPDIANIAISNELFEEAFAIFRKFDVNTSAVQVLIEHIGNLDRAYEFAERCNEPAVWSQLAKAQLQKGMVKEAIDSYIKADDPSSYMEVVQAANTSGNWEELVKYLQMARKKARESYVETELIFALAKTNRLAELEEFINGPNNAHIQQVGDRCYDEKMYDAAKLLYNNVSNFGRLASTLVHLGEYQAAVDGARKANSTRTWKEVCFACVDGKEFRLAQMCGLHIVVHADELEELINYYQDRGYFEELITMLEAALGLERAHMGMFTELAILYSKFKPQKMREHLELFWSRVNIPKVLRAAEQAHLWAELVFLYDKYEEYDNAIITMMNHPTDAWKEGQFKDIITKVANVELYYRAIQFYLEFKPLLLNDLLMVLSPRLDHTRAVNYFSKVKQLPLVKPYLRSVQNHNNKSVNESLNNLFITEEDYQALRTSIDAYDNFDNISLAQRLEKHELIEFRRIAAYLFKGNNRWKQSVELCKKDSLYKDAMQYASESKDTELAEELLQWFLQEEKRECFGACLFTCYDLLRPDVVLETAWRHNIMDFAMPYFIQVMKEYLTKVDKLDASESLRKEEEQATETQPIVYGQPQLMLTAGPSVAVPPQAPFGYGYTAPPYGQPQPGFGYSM

These substances were tested against FRBT2098L-HA-hTAC (UniProt P01589) (assay: co-IP; co-immunoprecipitation with an anti-HA antibody in hTAC-HeLa cell lysates; elution immunoblotted).

Row | Substance | binding
1 | AP2A1 (from UniProt O95782 1-977) | binds weakly
2 | AP2B1 (from UniProt P63010 1-937) | binds weakly
3 | CLTC (from UniProt Q00610 1-1675) | binds weakly
